Measured values taken from publication PMC10601247.
No constants are given. Whether binding was seen depends on the method and setting. In cells and extracts the contact can be indirect. Here binding means that the protein was enriched with, or labelled near, the bait; the list need not be complete. Tags and fused reporters may be left off the sequences shown.

Target: T1, His-tagged recombinant flotillin-2 (UniProt Q14254)
T1 sequence: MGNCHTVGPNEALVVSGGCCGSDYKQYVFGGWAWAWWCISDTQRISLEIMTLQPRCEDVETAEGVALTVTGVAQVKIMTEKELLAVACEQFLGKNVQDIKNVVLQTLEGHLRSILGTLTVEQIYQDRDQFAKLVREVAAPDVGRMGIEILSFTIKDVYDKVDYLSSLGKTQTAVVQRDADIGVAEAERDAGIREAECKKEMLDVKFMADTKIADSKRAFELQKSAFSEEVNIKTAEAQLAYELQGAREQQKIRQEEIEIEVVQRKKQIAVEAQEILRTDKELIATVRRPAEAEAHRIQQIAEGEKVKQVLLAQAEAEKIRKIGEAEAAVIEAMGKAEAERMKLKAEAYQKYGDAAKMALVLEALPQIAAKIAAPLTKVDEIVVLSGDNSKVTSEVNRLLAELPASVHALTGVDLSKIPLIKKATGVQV
Assay: affinity purification with mass spectrometry; recombinant flotillin-2 covalently conjugated to CNBr Sepharose 4B, blocked with BSA; HeLa DRM fraction mixed 1:1 with lysis buffer (50 mM Tris pH 7.5, 300 mM NaCl, 2% octyl β-D-glucopyranoside, 2 mM EDTA), 16 h; gel fragment with bands larger than 60 kDa to MS/MS; unconjugated resin as control; only the target purified

binding: binds
B1: EFR3A (endogenous, HeLa cells) (protein, UniProt Q14156 1-821)
chain: MPTRVCCCCSALRPRYKRLVDNIFPEDPKDGLVKTDMEKLTFYAVSAPEKLDRIGSYLAERLSRDVVRHRSGYVLIAMEALDQLLMACHSQSIKPFVESFLHMVAKLLESGEPKLQVLGTNSFVKFANIEEDTPSYHRRYDFFVSRFSAMCHSCHSDPEIRTEIRIAGIRGIQGVVRKTVNDELRATIWEPQHMDKIVPSLLFNMQKIEEVDSRIGPPSSPSATDKEENPAVLAENCFRELLGRATFGNMNNAVRPVFAHLDHHKLWDPNEFAVHCFKIIMYSIQAQYSHHVIQEILGHLDARKKDAPRVRAGIIQVLLEAVAIAAKGSIGPTVLEVFNTLLKHLRLSVEFEANDLQGGSVGSVNLNTSSKDNDEKIVQNAIIQTIGFFGSNLPDYQRSEIMMFIMGKVPVFGTSTHTLDISQLGDLGTRRIQIMLLRSLLMVTSGYKAKTIVTALPGSFLDPLLSPSLMEDYELRQLVLEVMHNLMDRHDNRAKLRGIRIIPDVADLKIKREKICRQDTSFMKKNGQQLYRHIYLGCKEEDNVQKNYELLYTSLALITIELANEEVVIDLIRLAIALQDSAIINEDNLPMFHRCGIMALVAAYLNFVSQMIAVPAFCQHVSKVIEIRTMEAPYFLPEHIFRDKCMLPKSLEKHEKDLYFLTNKIAESLGGSGYSVERLSVPYVPQVTDEDRLSRRKSIVDTVSIQVDILSNNVPSDDVVSNTEEITFEALKKAIDTSGMEEQEKEKRRLVIEKFQKAPFEEIAAQCESKANLLHDRLAQILELTIRPPPSPSGTLTITSGHAQYQSVPVYEMKFPDLCVY
